Source: paper PMC10688342
Construct, isoform or probe ends are uncertain for at least one entry. Where cells or extracts were used, other partners may take part. At least one verdict rests on a figure or table, not on a statement of the authors. For part of these data: Tags and fusion partners may be left off the protein sequences shown.

The chains behind the UniProt entries cited, without tags or fusion partners.
UniProt P25490, whole entry: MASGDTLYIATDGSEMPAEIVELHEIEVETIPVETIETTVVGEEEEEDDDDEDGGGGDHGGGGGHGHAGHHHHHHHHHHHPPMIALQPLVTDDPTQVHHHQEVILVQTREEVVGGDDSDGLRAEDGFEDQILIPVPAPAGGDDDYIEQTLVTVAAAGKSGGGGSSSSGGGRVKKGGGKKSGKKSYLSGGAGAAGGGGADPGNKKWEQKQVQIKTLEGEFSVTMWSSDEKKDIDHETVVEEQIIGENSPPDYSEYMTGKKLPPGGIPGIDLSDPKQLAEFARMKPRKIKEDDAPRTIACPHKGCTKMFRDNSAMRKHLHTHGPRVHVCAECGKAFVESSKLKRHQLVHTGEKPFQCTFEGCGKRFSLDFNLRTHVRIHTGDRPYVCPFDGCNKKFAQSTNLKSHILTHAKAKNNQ

Experiments:
Test in all cases: EMSA supershift
Details in all cases: LightShift Chemiluminescent EMSA kit 1x binding buffer, poly(dI-dC), 6% native PAGE, pH and temperature not stated, label: 5'-biotin (probe), unlabeled as cold competitor
[1] = target: T1, GATA2 (UniProt P23769)
T1 sequence (looked up, limits assumed): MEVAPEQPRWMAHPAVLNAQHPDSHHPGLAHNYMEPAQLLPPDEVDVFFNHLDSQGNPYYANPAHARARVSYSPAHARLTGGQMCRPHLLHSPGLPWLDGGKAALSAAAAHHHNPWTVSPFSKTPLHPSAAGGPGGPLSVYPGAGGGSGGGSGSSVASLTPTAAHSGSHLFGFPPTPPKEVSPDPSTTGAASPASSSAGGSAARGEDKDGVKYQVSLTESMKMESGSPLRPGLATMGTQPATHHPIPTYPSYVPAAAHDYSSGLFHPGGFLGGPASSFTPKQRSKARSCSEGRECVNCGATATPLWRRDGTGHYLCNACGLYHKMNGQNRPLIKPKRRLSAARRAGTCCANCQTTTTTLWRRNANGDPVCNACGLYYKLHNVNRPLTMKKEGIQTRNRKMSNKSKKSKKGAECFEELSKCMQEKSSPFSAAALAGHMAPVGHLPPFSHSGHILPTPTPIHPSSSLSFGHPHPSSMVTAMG

[2] = target: T2, ETS1 (UniProt P14921)
T2 sequence (looked up, limits assumed): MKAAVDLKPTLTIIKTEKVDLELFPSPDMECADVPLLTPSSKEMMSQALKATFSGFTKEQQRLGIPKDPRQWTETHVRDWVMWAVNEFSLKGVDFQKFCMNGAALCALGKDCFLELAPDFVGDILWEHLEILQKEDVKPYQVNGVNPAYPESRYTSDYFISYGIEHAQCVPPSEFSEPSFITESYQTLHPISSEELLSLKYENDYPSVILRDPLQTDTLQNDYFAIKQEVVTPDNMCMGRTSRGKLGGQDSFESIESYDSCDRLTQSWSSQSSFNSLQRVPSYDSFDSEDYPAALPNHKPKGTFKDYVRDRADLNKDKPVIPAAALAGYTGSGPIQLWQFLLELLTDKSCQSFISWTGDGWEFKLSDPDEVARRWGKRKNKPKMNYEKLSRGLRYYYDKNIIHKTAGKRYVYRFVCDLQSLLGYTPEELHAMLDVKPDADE

[3] = target: YY1 (UniProt P25490)
[4] = HBDSP-transfected HepG2 nuclear extract, protein in an extract
[5] = HepG2 nuclear extract, protein in an …

Sequence	binding result [1, 4]	binding result [1, 5]	binding result [3, 4]	binding result [3, 5]	further results
AAATAAGATGGTGTGATATAAAGTA (double strand) [GATA2-3 probe (BS3)]	binds	binds			
AAATCTTATCAGAGTGATAAGGGTT (double strand) [GATA2-2 probe (BS2)]	binds	binds			
AAGGCTTACGTTTCCATGTACTGAA (double strand) [ETS1 probe]					binding result [2, 4]: binds; binding result [2, 5]: binds
AAGGCTTACGTTTCCATGTACTGAA (double strand) [YY1-2 probe (BS2)]			binds	binds	
AGGAGATTAAATAAGATGGTGTGAT (double strand) [YY1-1 probe (BS1)]			binds	binds	
TGCTACCCAGCACTGATATAGGCAC (double strand) [GATA2-1 probe (BS1)]	binds	binds			
